For one molecule, binding results are on record in patent publication US20120214748A1, “NOVEL PEPTIDES, PROCESS FOR PREPARATION THEREOF, AND USE THEREOF” (priority 2009, published 2012).

These are yes or no findings as the source states them, for the method shown. Binding can be weak; no strength is given.

The target of one assay is Trypsin. The experiment in a line: enzyme inhibition with synthetic substrate.
In a further assay the target is Thrombin. The experiment in a line: enzyme inhibition with synthetic substrate.

Take GICSRSLPPICIPD (disulphide bridge between the two cysteinyl side chains; open chain) [M2-4G]: the binding result in the assay with Trypsin and with Thrombin was “binds” throughout.
